Reference: paper PMC10879806
Results are given in words; binding and its absence hold for the method and conditions named. Binding seen in cells or lysates may run through a third protein. Some entries that bind do so weakly or less than the wild type.

By UniProt entry, the sequences of proteins in these tests, tags left out. Residues count along the entry.
UniProt P25799, residues 1-431: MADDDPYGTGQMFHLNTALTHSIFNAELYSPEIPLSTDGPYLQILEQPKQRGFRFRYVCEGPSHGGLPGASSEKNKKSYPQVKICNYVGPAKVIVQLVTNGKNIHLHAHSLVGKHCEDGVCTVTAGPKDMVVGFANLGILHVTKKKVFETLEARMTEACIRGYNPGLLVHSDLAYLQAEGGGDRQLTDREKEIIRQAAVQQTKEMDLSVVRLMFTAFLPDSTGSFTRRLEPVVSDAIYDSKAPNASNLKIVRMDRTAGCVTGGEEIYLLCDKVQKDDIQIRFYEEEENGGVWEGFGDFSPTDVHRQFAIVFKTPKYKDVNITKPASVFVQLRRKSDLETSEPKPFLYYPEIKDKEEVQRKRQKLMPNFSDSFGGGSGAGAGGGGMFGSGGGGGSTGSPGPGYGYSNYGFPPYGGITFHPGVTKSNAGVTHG
UniProt P07356: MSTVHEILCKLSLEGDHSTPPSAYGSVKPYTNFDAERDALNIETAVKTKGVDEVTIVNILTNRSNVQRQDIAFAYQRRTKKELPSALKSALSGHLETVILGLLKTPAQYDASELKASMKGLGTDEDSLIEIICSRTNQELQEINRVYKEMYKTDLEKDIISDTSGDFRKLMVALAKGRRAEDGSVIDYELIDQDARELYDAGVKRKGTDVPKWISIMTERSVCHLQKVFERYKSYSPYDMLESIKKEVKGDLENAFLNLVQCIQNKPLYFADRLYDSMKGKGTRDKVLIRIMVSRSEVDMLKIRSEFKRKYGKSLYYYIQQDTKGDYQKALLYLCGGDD

Biological target: p50 subunit of NF-κB (mouse (endogenous in BV2)) (UniProt P25799)
Assay: co-IP; BV2 cell lysates, with or without OGD/R treatment; lysis buffer 50 mM Tris-HCl pH 7.5, 150 mM NaCl, 1% Nonidet P-40, 1 mM EDTA, 0.5% sodium deoxycholate; anti-Anxa2 or anti-p50 antibody overnight at 4 °C, protein A/G magnetic beads; immunoblotting

binding: binds
Substance: Annexin A2 (from UniProt P07356 1-339)
